# Assay results from the supplement of paper PMC8728848.
# The list shows a part of the results.
# Key:
# Test in all cases: glycan array binding signal (z-score within array); higher = stronger binding
# Conditions in all cases: glycan notation: IUPAC condensed, linker removed
# [1] = target: Neu5Ac(a2-6)Gal(b1-4)GlcNAc(b1-2)Man(a1-6)[Gal(b1-4)GlcNAc(b1-2)Man(a1-3)]Man(b1-4)GlcNAc(b1-4)GlcNAc
# Summary of the method: (§1)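 Arrays were curated from the Consortium for Functional Glycomics database, 3228 in total, and kept only where the protein sequence was available. Binding is expressed as a within-array Z-score. This score was averaged across arrays of the same protein sequence at different concentrations or buffers and across linkers, and negative values can be read as non-binding.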
# [2] = target: Neu5Ac(a2-6)Gal(b1-4)GlcNAc(b1-2)Man(a1-6)[GlcNAc(b1-2)Man(a1-3)]Man(b1-4)GlcNAc(b1-4)GlcNAc
# Summary of the method: as §1
# [3] = target: Neu5Ac(a2-6)Gal(b1-4)GlcNAc(b1-2)Man(a1-6)[Man(a1-3)]Man(b1-4)GlcNAc(b1-4)GlcNAc
# Summary of the method: as §1
# [4] = target: Neu5Ac(a2-6)Gal(b1-4)GlcNAc(b1-2)[Neu5Ac(a2-6)Gal(b1-4)GlcNAc(b1-4)]Man(a1-3)[GlcNAc(b1-4)][Neu5Ac(a2-6)Gal(b1-4)GlcNAc(b1-2)[Neu5Ac(a2-6)Gal(b1-4)GlcNAc(b1-6)]Man(a1-6)]Man(b1-4)GlcNAc(b1-4)GlcNAc
# Summary of the method: as §1
# [5] = target: Neu5Ac(a2-6)Gal(b1-4)GlcNAc(b1-2)[Neu5Ac(a2-6)Gal(b1-4)GlcNAc(b1-4)]Man(a1-3)[GlcNAc(b1-4)][Neu5Ac(a2-6)Gal(b1-4)GlcNAc(b1-4)Man(a1-6)]Man(b1-4)GlcNAc(b1-4)GlcNAc
# Summary of the method: as §1
# [6] = target: Neu5Ac(a2-6)Gal(b1-4)GlcNAc(b1-2)[Neu5Ac(a2-6)Gal(b1-4)GlcNAc(b1-6)]Man(a1-6)[Neu5Ac(a2-6)Gal(b1-4)GlcNAc(b1-2)Man(a1-3)][GlcNAc(b1-4)]Man(b1-4)GlcNAc(b1-4)GlcNAc
# Summary of the method: as §1
# [7] = target: Neu5Ac(a2-6)Gal(b1-4)GlcNAc(b1-3)Gal(b1-3)GlcNAc
# Summary of the method: as §1
# [8] = target: Neu5Ac(a2-6)Gal(b1-4)GlcNAc(b1-3)Gal(b1-4)GlcNAc
# Summary of the method: as §1
# [9] = target: Neu5Ac(a2-6)Gal(b1-4)GlcNAc(b1-3)Gal(b1-4)GlcNAc(b1-2)Man(a1-3)[Neu5Ac(a2-6)Gal(b1-4)GlcNAc(b1-3)Gal(b1-4)GlcNAc(b1-2)Man(a1-6)]GalNAc
# Summary of the method: as §1
# [10] = target: Neu5Ac(a2-6)Gal(b1-4)GlcNAc(b1-3)Gal(b1-4)GlcNAc(b1-3)Gal(b1-4)GlcNAc
# Summary of the method: as §1
# [11] = target: Neu5Ac(a2-6)Gal(b1-4)GlcNAc(b1-3)Gal(b1-4)GlcNAc(b1-3)Gal(b1-4)GlcNAc(b1-2)Man(a1-3)[Neu5Ac(a2-6)Gal(b1-4)GlcNAc(b1-3)Gal(b1-4)GlcNAc(b1-3)Gal(b1-4)GlcNAc(b1-2)Man(a1-6)]GalNAc
# Summary of the method: as §1
# [12] = target: Neu5Ac(a2-6)Gal(b1-4)GlcNAc(b1-3)Gal(b1-4)GlcNAc(b1-3)GalNAc
# Summary of the method: as §1
# [13] = target: Neu5Ac(a2-6)Gal(b1-4)GlcNAc(b1-3)Gal(b1-4)GlcNAc(b1-3)[Neu5Ac(a2-6)Gal(b1-4)GlcNAc(b1-3)Gal(b1-4)GlcNAc(b1-6)]GalNAc
# Summary of the method: as §1
# [14] = target: Neu5Ac(a2-6)Gal(b1-4)GlcNAc(b1-3)Gal(b1-4)GlcNAc(b1-6)[Gal(b1-3)]GalNAc
# Summary of the method: as §1
# [15] = target: Neu5Ac(a2-6)Gal(b1-4)GlcNAc(b1-3)Gal(b1-4)[Fuc(a1-3)]GlcNAc(b1-3)Gal(b1-4)[Fuc(a1-3)]GlcNAc
# Summary of the method: as §1
# [16] = target: Neu5Ac(a2-6)Gal(b1-4)GlcNAc(b1-3)GalNAc
# Summary of the method: as §1
# [17] = target: Neu5Ac(a2-6)Gal(b1-4)GlcNAc(b1-3)[Neu5Ac(a2-6)Gal(b1-4)GlcNAc(b1-6)]GalNAc
# Summary of the method: as §1
# [18] = target: Neu5Ac(a2-6)Gal(b1-4)GlcNAc(b1-6)GalNAc
# Summary of the method: as §1
# [19] = target: Neu5Ac(a2-6)Gal(b1-4)GlcNAc(b1-6)[Gal(b1-3)GlcNAc(b1-3)]Gal(b1-4)Glc
# Summary of the method: as §1
# [20] = target: Neu5Ac(a2-6)Gal(b1-4)GlcNAc(b1-6)[Gal(b1-3)]GalNAc
# Summary of the method: as §1
# [21] = target: Neu5Ac(a2-6)Gal(b1-4)GlcNAc6S
# Summary of the method: as §1
# Neu5Ac(a2-6)GalNAc = target: Neu5Ac(a2-6)GalNAc
# Summary of the method: as §1
# [22] = target: Neu5Ac(a2-6)GalNAc(b1-4)GlcNAc
# Summary of the method: as §1
# [23] = target: Neu5Ac(a2-6)GalNAc(b1-4)GlcNAc6S
# Summary of the method: as §1
# [24] = target: Neu5Ac(a2-6)GlcNAc(b1-4)GlcNAc
# Summary of the method: as §1
# [25] = target: Neu5Ac(a2-6)GlcNAc(b1-4)GlcNAc(b1-4)GlcNAc
# Summary of the method: as §1
# Neu5Ac(a2-8)Neu5Ac = target: Neu5Ac(a2-8)Neu5Ac
# Summary of the method: as §1
# [26] = target: Neu5Ac(a2-8)Neu5Ac(a2-3)Gal(b1-3)GalNAc(b1-4)[Neu5Ac(a2-3)]Gal(b1-4)Glc
# Summary of the method: as §1
# [27] = target: Neu5Ac(a2-8)Neu5Ac(a2-3)Gal(b1-3)GalNAc(b1-4)[Neu5Ac(a2-8)Neu5Ac(a2-3)]Gal(b1-4)Glc
# Summary of the method: as §1
binder,measurement,setting,value
"CRT-1 (Homo sapiens), P27797 (protein) MLLSVPLLLGLLGLAVAEPAVYFKEQFLDGDGWTSRWIESKHKSDFGKFVLSSGKFYGDEEKDKGLQTSQDARFYALSASFEPFSNKGQTLVVQFTVKHEQNIDCGGGYVKLFPNSLDQTDMHGDSEYNIMFGPDICGPGTKKVHVIFNYKGKNVLINKDIRCKDDEFTHLYTLIVRPDNTYEVKIDNSQVESGSLEDDWDFLPPKKIKDPDASKPEDWDERAKIDDPTDSKPEDWDKPEHIPDPDAKKPEDWDEEMDGEWEPPVIQNPEYKGEWKPRQIDNPDYKGTWIHPEIDNPEYSPDPSIYAYDNFGVLGLDLWQVKSGTIFDNFLITNDEAYAEEFGNETWGVTKAAEKQMKDKQDEEQRLKEEEEDKKRKEEEEAEDKEDDEDKDEDEEDEEDKEEDEEEDVPGQAKDEL",glycan array binding signal (z-score),[1],-0.67
same,glycan array binding signal (z-score),[2],-0.164
same,glycan array binding signal (z-score),[3],-0.261
same,glycan array binding signal (z-score),[4],0.688
same,glycan array binding signal (z-score),[5],-1.29
same,glycan array binding signal (z-score),[6],-0.299
same,glycan array binding signal (z-score),[7],-0.004
same,glycan array binding signal (z-score),[8],-0.24
same,glycan array binding signal (z-score),[9],0.199
same,glycan array binding signal (z-score),[10],-0.649
same,glycan array binding signal (z-score),[11],1.9
same,glycan array binding signal (z-score),[12],-1.62
same,glycan array binding signal (z-score),[13],1.25
same,glycan array binding signal (z-score),[14],-0.011
same,glycan array binding signal (z-score),[15],0.538
same,glycan array binding signal (z-score),[16],-0.468
same,glycan array binding signal (z-score),[17],-0.326
same,glycan array binding signal (z-score),[18],-0.176
same,glycan array binding signal (z-score),[19],0.026
same,glycan array binding signal (z-score),[20],-0.046
same,glycan array binding signal (z-score),[21],0.347
same,glycan array binding signal (z-score),Neu5Ac(a2-6)GalNAc,0.869
same,glycan array binding signal (z-score),[22],-0.93
same,glycan array binding signal (z-score),[23],0.315
same,glycan array binding signal (z-score),[24],0.504
same,glycan array binding signal (z-score),[25],0.038
same,glycan array binding signal (z-score),Neu5Ac(a2-8)Neu5Ac,-0.23
same,glycan array binding signal (z-score),[26],0.382
same,glycan array binding signal (z-score),[27],0.12

# Retrieved one by one from above (2):
binder,measurement,setting,value
"CRT-1 (Homo sapiens), P27797 (protein) MLLSVPLLLGLLGLAVAEPAVYFKEQFLDGDGWTSRWIESKHKSDFGKFVLSSGKFYGDEEKDKGLQTSQDARFYALSASFEPFSNKGQTLVVQFTVKHEQNIDCGGGYVKLFPNSLDQTDMHGDSEYNIMFGPDICGPGTKKVHVIFNYKGKNVLINKDIRCKDDEFTHLYTLIVRPDNTYEVKIDNSQVESGSLEDDWDFLPPKKIKDPDASKPEDWDERAKIDDPTDSKPEDWDKPEHIPDPDAKKPEDWDEEMDGEWEPPVIQNPEYKGEWKPRQIDNPDYKGTWIHPEIDNPEYSPDPSIYAYDNFGVLGLDLWQVKSGTIFDNFLITNDEAYAEEFGNETWGVTKAAEKQMKDKQDEEQRLKEEEEDKKRKEEEEAEDKEDDEDKDEDEEDEEDKEEDEEEDVPGQAKDEL",glycan array binding signal (z-score),[10],-0.649
same,glycan array binding signal (z-score),[23],0.315
